According to paper doi:10.1101/2024.12.06.627168:
Results are given in words; binding and its absence hold for the method and conditions named. Binding seen in cells or lysates may run through a third protein. Some entries that bind do so weakly or less than the wild type.

Sequences of proteins named here, by UniProt entry; tags and fusion partners are left off.
UniProt P01106: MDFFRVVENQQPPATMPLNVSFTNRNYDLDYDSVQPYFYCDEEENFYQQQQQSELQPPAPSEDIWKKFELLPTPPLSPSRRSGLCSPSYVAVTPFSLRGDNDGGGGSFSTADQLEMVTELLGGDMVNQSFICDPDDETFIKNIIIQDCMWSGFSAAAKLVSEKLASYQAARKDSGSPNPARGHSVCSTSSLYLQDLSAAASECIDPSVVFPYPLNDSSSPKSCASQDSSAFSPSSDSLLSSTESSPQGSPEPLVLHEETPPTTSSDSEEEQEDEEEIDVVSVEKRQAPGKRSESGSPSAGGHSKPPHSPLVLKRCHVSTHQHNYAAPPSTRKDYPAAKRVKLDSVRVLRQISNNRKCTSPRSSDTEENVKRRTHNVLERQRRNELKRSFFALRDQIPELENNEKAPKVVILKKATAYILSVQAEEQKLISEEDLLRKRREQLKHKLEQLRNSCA

B1: STRBP (protein, UniProt Q96SI9 1-672)
chain: MRSIRSFANDDRHVMVKHSTIYPSPEELEAVQNMVSTVECALKHVSDWLDETNKGTKTEGETEVKKDEAGENYSKDQGGRTLCGVMRIGLVAKGLLIKDDMDLELVLMCKDKPTETLLNTVKDNLPIQIQKLTEEKYQVEQCVNEASIIIRNTKEPTLTLKVILTSPLIRDELEKKDGENVSMKDPPDLLDRQKCLNALASLRHAKWFQARANGLKSCVIVLRILRDLCNRVPTWAPLKGWPLELICEKSIGTCNRPLGAGEALRRVMECLASGILLPGGPGLHDPCERDPTDALSYMTIQQKEDITHSAQHALRLSAFGQIYKVLEMDPLPSSKPFQKYSWSVTDKEGAGSSALKRPFEDGLGDDKDPNKKMKRNLRKILDSKAIDLMNALMRLNQIRPGLQYKLLSQSGPVHAPVFTMSVDVDGTTYEASGPSKKTAKLHVAVKVLQAMGYPTGFDADIECMSSDEKSDNESKNETVSSNSSNNTGNSTTETSSTLEVRTQGPILTASGKNPVMELNEKRRGLKYELISETGGSHDKRFVMEVEVDGQKFRGAGPNKKVAKASAALAALEKLFSGPNAANNKKKKIIPQAKGVVNTAVSAAVQAVRGRGRGTLTRGAFVGATAAPGYIAPGYGTPYGYSTAAPAYGLPKRMVLLPVMKFPTYPVPHYSFF
B2: EXOSC10 (protein, UniProt Q01780 1-885)
chain: MAPPSTREPRVLSATSATKSDGEMVLPGFPDADSFVKFALGSVVAVTKASGGLPQFGDEYDFYRSFPGFQAFCETQGDRLLQCMSRVMQYHGCRSNIKDRSKVTELEDKFDLLVDANDVILERVGILLDEASGVNKNQQPVLPAGLQVPKTVVSSWNRKAAEYGKKAKSETFRLLHAKNIIRPQLKFREKIDNSNTPFLPKIFIKPNAQKPLPQALSKERRERPQDRPEDLDVPPALADFIHQQRTQQVEQDMFAHPYQYELNHFTPADAVLQKPQPQLYRPIEETPCHFISSLDELVELNEKLLNCQEFAVDLEHHSYRSFLGLTCLMQISTRTEDFIIDTLELRSDMYILNESLTDPAIVKVFHGADSDIEWLQKDFGLYVVNMFDTHQAARLLNLGRHSLDHLLKLYCNVDSNKQYQLADWRIRPLPEEMLSYARDDTHYLLYIYDKMRLEMWERGNGQPVQLQVVWQRSRDICLKKFIKPIFTDESYLELYRKQKKHLNTQQLTAFQLLFAWRDKTARREDESYGYVLPNHMMLKIAEELPKEPQGIIACCNPVPPLVRQQINEMHLLIQQAREMPLLKSEVAAGVKKSGPLPSAERLENVLFGPHDCSHAPPDGYPIIPTSGSVPVQKQASLFPDEKEDNLLGTTCLIATAVITLFNEPSAEDSKKGPLTVAQKKAQNIMESFENPFRMFLPSLGHRAPVSQAAKFDPSTKIYEISNRWKLAQVQVQKDSKEAVKKKAAEQTAAREQAKEACKAAAEQAISVRQQVVLENAAKKRERATSDPRTTEQKQEKKRLKISKKPKDPEPPEKEFTPYDYSQSDFKAFAGNSKSKVSSQFDPNKQTPSGKKCIAAKKIKQSVGNKSMSFPTGKSDRGFRYNWPQR
B3: ZCCHC8 (protein, UniProt Q6NZY4 1-707)
chain: MAAEVYFGDLELFEPFDHPEESIPKPVHTRFKDDDGDEEDENGVGDAELRERLRQCEETIEQLRAENQELKRKLNILTRPSGILVNDTKLDGPILQILFMNNAISKQYHQEIEEFVSNLVKRFEEQQKNDVEKTSFNLLPQPSSIVLEEDHKVEESCAIKNNKEAFSVVGSVLYFTNFCLDKLGQPLLNENPQLSEGWEIPKYHQVFSHIVSLEGQEIQVKAKRPKPHCFNCGSEEHQMKDCPMPRNAARISEKRKEYMDACGEANNQNFQQRYHAEEVEERFGRFKPGVISEELQDALGVTDKSLPPFIYRMRQLGYPPGWLKEAELENSGLALYDGKDGTDGETEVGEIQQNKSVTYDLSKLVNYPGFNISTPRGIPDEWRIFGSIPMQACQQKDVFANYLTSNFQAPGVKSGNKRSSSHSSPGSPKKQKNESNSAGSPADMELDSDMEVPHGSQSSESFQFQPPLPPDTPPLPRGTPPPVFTPPLPKGTPPLTPSDSPQTRTASGAVDEDALTLEELEEQQRRIWAALEQAESVNSDSDVPVDTPLTGNSVASSPCPNELDLPVPEGKTSEKQTLDEPEVPEIFTKKSEAGHASSPDSEVTSLCQKEKAELAPVNTEGALLDNGSVVPNCDISNGGSQKLFPADTSPSTATKIHSPIPDMSKFATGITPFEFENMAESTGMYLRIRSLLKNSPRNQQKNKKASE
B4: RBM15 (protein, UniProt Q96T37 1-977)
chain: MRTAGRDPVPRRSPRWRRAVPLCETSAGRRVTQLRGDDLRRPATMKGKERSPVKAKRSRGGEDSTSRGERSKKLGGSGGSNGSSSGKTDSGGGSRRSLHLDKSSSRGGSREYDTGGGSSSSRLHSYSSPSTKNSSGGGESRSSSRGGGGESRSSGAASSAPGGGDGAEYKTLKISELGSQLSDEAVEDGLFHEFKRFGDVSVKISHLSGSGSGDERVAFVNFRRPEDARAAKHARGRLVLYDRPLKIEAVYVSRRRSRSPLDKDTYPPSASVVGASVGGHRHPPGGGGGQRSLSPGGAALGYRDYRLQQLALGRLPPPPPPPLPRDLERERDYPFYERVRPAYSLEPRVGAGAGAAPFREVDEISPEDDQRANRTLFLGNLDITVTESDLRRAFDRFGVITEVDIKRPSRGQTSTYGFLKFENLDMSHRAKLAMSGKIIIRNPIKIGYGKATPTTRLWVGGLGPWVPLAALAREFDRFGTIRTIDYRKGDSWAYIQYESLDAAHAAWTHMRGFPLGGPDRRLRVDFADTEHRYQQQYLQPLPLTHYELVTDAFGHRAPDPLRGARDRTPPLLYRDRDRDLYPDSDWVPPPPPVRERSTRTAATSVPAYEPLDSLDRRRDGWSLDRDRGDRDLPSSRDQPRKRRLPEESGGRHLDRSPESDRPRKRHCAPSPDRSPELSSSRDRYNSDNDRSSRLLLERPSPIRDRRGSLEKSQGDKRDRKNSASAERDRKHRTTAPTEGKSPLKKEDRSDGSAPSTSTASSKLKSPSQKQDGGTAPVASASPKLCLAWQGMLLLKNSNFPSNMHLLQGDLQVASSLLVEGSTGGKVAQLKITQRLRLDQPKLDEVTRRIKVAGPNGYAILLAVPGSSDSRSSSSSAASDTATSTQRPLRNLVSYLKQKQAAGVISLPVGGNKDKENTGVLHAFPPCEFSQQFLDSPAKALAKSEEDYLVMIIVRGFGFQIGVRYENKKRENLALTLL

Molecular target: MYC (endogenous, in EtOH-treated control U2OS^MYC-Tet-On cells) (human (endogenous in U2OS)) (UniProt P01106)
Assay: co-IP

Binder | binding
B1 | binds
B2 | binds
B3 | binds
B4 | binds
